# Data reported in publication PMC2063170, “A phase I clinical and pharmacokinetic study of the new topoisomerase inhibitor GI147211 given as a 72-h continuous infusion” (British Journal of Cancer, 1998).
# Tested on: neutrophils and platelets
# Assay: Pharmacodynamics: sigmoid Emax (Hill) fit of % decrease in neutrophils or platelets vs lactone Css
# Format: in vivo, patients
# Details: sigmoid Emax model
# Description: Brrtish Joumal of Cancer(1998) 78(10). 1329-1336 @ 1998 Cancer Research Campaign A phase I clinical and pharmacokinetic study of the new topoisomerase inhibitor G1147211 given as a 72-h continuous infusion L Paz-Aresl*, R Kunkal 2, D DeMarial-3, J Cassidy' 4, M Alden3, P Beranek2, S Kaye', D Littlefield2, D Reilly3, S Depee2, P Wissel2, C Twelves' and P O'Dwyer3 CRC Department of Medical Oncology. University of Glasgow. Westem Infirmary Hospital. Glasgow Gll 6NT. UK; 2Glaxo Wellcome Research. Five Moore Drive. Research Triangle Park. NC 27709. USA; 'Fox Chase Cancer Center. 7701 Burholme Avenue. Philadelphia, PA 19111. USA: 4Thomas Jefferson University. Kimmel Cancer Institute. Bluemle Life Sciences Building. 233 S. 10th Street. Suite 502. Philadelphia. PA 19107. […] This study was designed to determine the maximum tolerated dose of Gl147211 as a 72-h infusion and to describe its pharmacokinetics and pharmacodynamics on this schedule. In a single-arm, rising-dose study in patients with advanced cancer, eight cohorts of three or more patients received 72-h infusions of G1147211 at doses ranging from 0.25 to 2.5 mg m-2 day-'. […] Whole-blood G1147211 lactone, total blood and total concentrations were measured during and over the 12 h following the infusion. […] Extensive phase 11 evaluation of this compound and further phase I trials evaluating more prolonged infusions are ongoing. Keywords: G1147211: GG211: camptothecin analogues: topoisomerase I inhibitor; phase I trial; pharmacokinetics: pharmacodynamics: continuous infusion GI 147211 (7-4 methyl piperazinomethilene)- 10.1 1 -ethylenedioxy - 20-(S camptothecin: Figure 1) is a totally synthetic analogue of camptothecin. a natural product isolated from Camptotheca acuminata (WAall et al. 1966: Emerson et al. 1995). […] The nuclear enzyvme DNA topoisomerase I. x hich relaxes DNA supercoils arising during, replication and gene tran- scription. has been identified as the specific targret of camptothecin (Hsianer and Liu. 1988: Wall and Wani. 1995).
smiles,measurement,setting,value
"CC[C@@]1(O)C(=O)OCc2c1cc1n(c2=O)Cc2c-1nc1cc3c(cc1c2CN1CCN(C)CC1)OCCO3 [GI147211, 7-4 methyl piperazinomethilene)-10.1 1-ethylenedioxy - 20-(S camptothecin]","Emax, % decrease ANC",Figure 4A,100%
same,"Hill exponent (gamma), % decrease ANC",Figure 4A,1.213
same,"Emax, % decrease platelets",Figure 4B,100%
same,"Hill exponent (gamma), % decrease platelets",Figure 4B,2.327
